The entries are a selection whose mix differs from that of the whole data set. At the low end of the ranking, values are background and their order means little.

The first assay addresses T1, ELK1 (UniProt P19419).
T1 sequence: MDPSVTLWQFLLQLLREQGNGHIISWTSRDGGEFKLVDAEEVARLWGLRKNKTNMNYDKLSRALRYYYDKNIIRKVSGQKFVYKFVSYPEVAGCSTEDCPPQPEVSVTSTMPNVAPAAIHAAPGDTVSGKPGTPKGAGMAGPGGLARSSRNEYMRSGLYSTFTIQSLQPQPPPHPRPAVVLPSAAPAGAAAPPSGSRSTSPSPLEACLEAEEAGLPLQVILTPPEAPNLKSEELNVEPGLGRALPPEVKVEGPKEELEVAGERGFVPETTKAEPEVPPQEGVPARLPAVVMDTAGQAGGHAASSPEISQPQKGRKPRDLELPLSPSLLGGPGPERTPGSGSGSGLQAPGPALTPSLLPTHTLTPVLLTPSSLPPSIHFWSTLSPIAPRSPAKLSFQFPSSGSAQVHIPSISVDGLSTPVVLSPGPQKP
The assay can be described thus: DAPPL (digital affinity profiling via proximity ligation, sequencing). To be noted: 10 mM Tris-HCl pH 7.5, 50 mM NaCl, 1 mM DTT, 4% glycerol, room temperature, 30 min; GST-TFs on glutathione beads, 16-mer random dsDNA library, 0.1% …; high values mean tight binding; double strand, one strand shown; scale: fold enrichment (6-mer frequency, TF over GST control).
AAGAGT returned a binding signal of 0.947.
As for GAGGCT, the binding signal is 0.639.
On to GAGGAT, for which the binding signal turned out to be 0.549.
AGTCCG came in with a binding signal of 0.554.
GACGTA registered a binding signal of 0.762.
Take AACAGT: the binding signal worked out at 0.669.
AGTTCA showed a binding signal of 0.947.
The sequence CGGGAT had a binding signal of 0.635.
GGCATC gave a binding signal of 0.903.
Same read-out and setting: for GGAGCT the value was 0.626; for GCACGG, 0.777.
In turn, CACGTG yielded a binding signal of 0.61.
On to AAGACA, for which the binding signal was 0.979.
GTGGAC: the binding signal amounted to 0.87.
On the same count and under the same terms, next, GAGCCG: 0.457; GGATGA: 0.963; GCCGTT: 0.8.
For TTGGAC, the binding signal worked out at 0.906.
In turn, GAGTTT gave a binding signal of 0.648.
On to GGTGAT, for which the binding signal was found to be 0.788.
As for GGGATA, the binding signal was found to be 0.801.
Take GTCGCT: the binding signal worked out at 0.865.
For ATCGGA, the binding signal stood at 0.399.
Sequence CGGACG gave a binding signal of 0.433.
On the same count and under the same terms, for AGAGAC the value was 0.531; for GGTCGG, 0.273.
For AGTTGA, the binding signal came out at 0.765.
AGGGGT: the binding signal came to 0.733.
CCAGAC showed a binding signal of 0.672.
GCGCGA returned a binding signal of 0.695.
For AGGACT, the binding signal came out at 0.96.
The sequence ACTGAG showed a binding signal of 0.773.
For TGCAGG, the binding signal turned out to be 0.914.
As for GGGGTT, the binding signal is 0.735.
GATGTG showed a binding signal of 0.887.
For CAACGG, the binding signal stood at 0.887.
TGTCGT displayed a binding signal of 0.971.
The sequence CCTAGT returned a binding signal of 0.921.
The same measure, in the same setting: for CGGAAT the value was 0.924.

For the next assay, the target named is T2, ELK3 (UniProt P41970).
T2 sequence: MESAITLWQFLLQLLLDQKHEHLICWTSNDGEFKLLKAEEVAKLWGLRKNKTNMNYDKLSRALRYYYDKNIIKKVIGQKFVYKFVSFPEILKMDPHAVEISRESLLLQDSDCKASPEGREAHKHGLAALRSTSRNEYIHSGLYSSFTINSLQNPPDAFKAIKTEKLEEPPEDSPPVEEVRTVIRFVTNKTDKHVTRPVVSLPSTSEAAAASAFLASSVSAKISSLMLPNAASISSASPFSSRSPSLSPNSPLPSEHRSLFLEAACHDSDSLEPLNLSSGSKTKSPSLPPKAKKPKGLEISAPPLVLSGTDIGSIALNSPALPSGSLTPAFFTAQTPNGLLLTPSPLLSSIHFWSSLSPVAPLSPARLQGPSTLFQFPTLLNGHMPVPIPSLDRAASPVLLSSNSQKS
The description is as above. The note with it: 10 mM Tris-HCl pH 7.5, 50 mM NaCl, 1 mM DTT, 4% glycerol, room temperature, 30 min; GST-TFs on glutathione beads, 16-mer random dsDNA library, 0.1% …; high values mean tight binding; double strand, one strand shown; scale: fold enrichment (6-mer frequency, TF over GST control).
As to AAGAGT, the binding signal came to 0.821.
GAGGCT: the binding signal is 0.632.
GAGGAT had a binding signal of 0.629.
For the sequence AGTCCG, the binding signal was 0.569.
Sequence GACGTA yielded a binding signal of 0.834.
On the same count and under the same terms, next, AACAGT: 0.68.
AGTTCA returned a binding signal of 0.889.
Consider CGGGAT, for which the binding signal stood at 0.721.
As to GGCATC, the binding signal worked out at 0.817.
Sequence GGAGCT registered a binding signal of 0.564.
On the same count and under the same terms, for GCACGG the value was 0.794.
Sequence CACGTG displayed a binding signal of 0.623.
Regarding AAGACA, the binding signal was 1.01.
Take GTGGAC: the binding signal was determined as 0.895.
Sequence GAGCCG had a binding signal of 0.405.
In turn, GGATGA yielded a binding signal of 0.792.
Take GCCGTT: the binding signal stood at 0.777.
Same read-out and setting: next, TTGGAC: 0.964.
For GAGTTT, the binding signal was determined as 0.663.
GGTGAT had a binding signal of 0.879.
Same read-out and setting: for GGGATA the value was 0.681.
Take GTCGCT: the binding signal amounted to 0.98.
Sequence ATCGGA showed a binding signal of 0.44.
Consider CGGACG, for which the binding signal was 0.46.
As to AGAGAC, the binding signal was 0.561.
GGTCGG had a binding signal of 0.303.
AGTTGA returned a binding signal of 0.767.
The sequence AGGGGT came in with a binding signal of 0.954.
CCAGAC: the binding signal came out at 0.729.
Still for that read-out and setting: next, GCGCGA: 0.806.
AGGACT showed a binding signal of 0.926.
For ACTGAG, the binding signal came out at 0.745.
In turn, GGGGTT displayed a binding signal of 0.947.
On the same count and under the same terms, for GATGTG the value was 0.953; for CAACGG, 0.852; for TGTCGT, 0.726.
Sequence CCTAGT yielded a binding signal of 0.8.
CGGAAT registered a binding signal of 1.01.

The target in a further assay is T3, SPIC (UniProt Q8N5J4).
T3 sequence: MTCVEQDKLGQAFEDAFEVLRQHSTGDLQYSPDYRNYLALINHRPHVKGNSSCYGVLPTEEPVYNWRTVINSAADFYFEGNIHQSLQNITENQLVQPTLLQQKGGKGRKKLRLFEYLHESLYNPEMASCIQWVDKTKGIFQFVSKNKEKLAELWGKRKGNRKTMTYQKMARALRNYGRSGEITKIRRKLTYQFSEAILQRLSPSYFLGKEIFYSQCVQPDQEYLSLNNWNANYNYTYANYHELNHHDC
The assay is described as above. The note with it: 10 mM Tris-HCl pH 7.5, 50 mM NaCl, 1 mM DTT, 4% glycerol, room temperature, 30 min; GST-TFs on glutathione beads, 16-mer random dsDNA library, 0.1% …; high values mean tight binding; double strand, one strand shown; scale: fold enrichment (6-mer frequency, TF over GST control).
Take AAGAGT: the binding signal stood at 0.686.
GAGGCT had a binding signal of 0.573.
The same measure, in the same setting: next, GAGGAT: 0.497.
In the case of AGTCCG, the binding signal was 0.581.
Turning to GACGTA, the binding signal was 0.746.
Regarding AACAGT, the binding signal worked out at 0.666.
With AGTTCA, the binding signal was found to be 0.964.
With CGGGAT, the binding signal is 0.65.
Same read-out and setting: next, GGCATC: 0.99; GGAGCT: 0.525; GCACGG: 0.811.
Regarding CACGTG, the binding signal worked out at 0.602.
The sequence AAGACA yielded a binding signal of 0.987.
The sequence GTGGAC returned a binding signal of 0.965.
The same measure, in the same setting: next, GAGCCG: 0.398; GGATGA: 0.97.
Turning to GCCGTT, the binding signal is 0.77.
With TTGGAC, the binding signal turned out to be 0.885.
The sequence GAGTTT had a binding signal of 0.648.
On to GGTGAT, for which the binding signal is 0.818.
Still for that read-out and setting: for GGGATA the value was 0.675; for GTCGCT, 0.757.
On to ATCGGA, for which the binding signal came out at 0.452.
As for CGGACG, the binding signal worked out at 0.343.
Regarding AGAGAC, the binding signal was 0.575.
Regarding GGTCGG, the binding signal amounted to 0.28.
On to AGTTGA, for which the binding signal turned out to be 0.846.
Still for that read-out and setting: next, AGGGGT: 0.824; CCAGAC: 0.625.
Still for that read-out and setting: next, GCGCGA: 0.796.
On to AGGACT, for which the binding signal amounted to 0.816.
Take ACTGAG: the binding signal came out at 0.828.
Still for that read-out and setting: for TGCAGG the value was 1.01.
GGGGTT: the binding signal amounted to 0.904.
As to GATGTG, the binding signal worked out at 0.931.
Take CAACGG: the binding signal is 0.824.
TGTCGT gave a binding signal of 0.902.
Turning to CCTAGT, the binding signal came out at 0.912.
CGGAAT showed a binding signal of 0.835.

The record behind these values is article PMC7862700.
